Where a name gives a salt, the structure may show the parent alone. This is one part of the list. Repeats in this data set agree poorly, so a single value says little.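 In a drug-repurposing library screen, luminescence reads luciferase driven by eight TEAD-binding elements, stably integrated into human kidney-derived cells. Compounds scoring over five robust Z scores above the plate mean are called hits.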
System: HEK293A TEAD-LUC reporter
Test: TEAD-luciferase reporter activity (YAP activation), robust Z score vs plate; higher = stronger YAP/TEAD activation
Settings: 24 h

Compound	TEAD-luciferase reporter activity (compound concentration: 200 nM)	TEAD-luciferase reporter activity (compound concentration: 2 uM)	TEAD-luciferase reporter activity (compound concentration: 10 uM)
CCNC(=O)C#Cc1ccc2c(c1)NC(=O)/C2=C(\Nc1ccc(CN(C)C)cc1)c1ccccc1	inactive: -1.68	inactive: -2.7	inactive: 0.971
Cc1cc2ncn(C/C=C3\c4ccccc4COc4ccc(C(=O)O)cc43)c2cc1C	inactive: 0.477	inactive: 1.36	inactive: 0.769
Cc1nc(NNC(=O)[C@H](CC2CCCC2)CN(O)C=O)c(F)c(N2CCN3CCOC[C@@H]3C2)n1	inactive: -1.79	inactive: 0.432	inactive: -0.682
c1ccc(-c2ncn(CCCCN3CCCC3)c2-c2ccncc2)cc1	inactive: -1.61	inactive: -1.82	inactive: -1.5
CC[C@H](C)[C@H](NC(=O)[C@H](CCCN=C(N)N)NC(=O)[C@H](C)NC(=O)[C@H](Cc1cnc[nH]1)NC(=O)[C@@H]1CCCN1C(=O)[C@H](Cc1cnc[nH]1)NC(=O)[C@@H]1CCCN1C(=O)[C@@H]1CCCN1C(=O)[C@@H]1CCCN1C(C)=O)C(=O)N[C@@H](CCCCN)C(N)=O	inactive: -1.33	inactive: -1.01	active: 6.41
CCCCCCCO[C@@H]1[C@H]2OC(C)(C)O[C@H]2O[C@@H]1CCNCc1ccccn1	inactive: -0.881	inactive: -0.632	inactive: 4.59
CCN1/C(=C/C=C/C=C/c2sc3ccccc3[n+]2CC)Sc2ccccc21	inactive: -0.473	inactive: -1.43	active: 7.57
CC#CC1(OCC(COCC(C)C)N2CCCC2)CCCCC1 (stereo not given)	inactive: -1.15	inactive: -0.0998	inactive: 3.52
CC[C@]1(C)C[C@@H](OC(=O)CSc2nnc(N)[nH]2)[C@]2(C)[C@H](C)CC[C@]3(CCC(=O)[C@H]32)[C@@H](C)[C@@H]1O [azamulin]	inactive: 3.17	inactive: -1.08	inactive: 0.336
CCCC(=O)N(C)Cc1c(-c2ccc(Cl)cc2)nc2ccccn12 [Saripidem]	inactive: 2.86	inactive: -0.371	inactive: -0.938
COc1cccc(C(=O)OC2CCN(C)CC2)c1	inactive: -0.725	inactive: 0.465	inactive: 2.24
CN1C(=O)C[C@@H](C(=O)N[C@@H](Cc2cnc[nH]2)C(=O)N2CCC[C@H]2C(N)=O)NC1=O [taltirelin hydrate ODT]	inactive: -1.09	inactive: 0.56	inactive: 1.78
FC(F)C(F)(F)CBr	inactive: 0.603	inactive: 1.67	inactive: -0.752
COc1ccc(S(=O)(=O)N(Cc2cccnc2)[C@@H](C(=O)NO)C(C)C)cc1	inactive: -1.26	inactive: 0.865	inactive: -1.03
CNC(=O)c1cc(COc2nnc(Nc3ccc(Cl)cc3)c3ccoc23)ccn1 [telatinib]	inactive: -0.667	inactive: -2.06	inactive: 0.0736
CCn1c(O)nnc1-c1ccc(Cl)cc1	inactive: -1.27	inactive: -0.291	inactive: 0.472
O=C(NC1CC1)C1CCN(c2nc3ncccc3o2)CC1	inactive: -0.888		inactive: -0.0641
CCCC(CCC)C(=O)NCC(N)=O [Valrocemide]	inactive: -0.666	inactive: 3.09	inactive: -2.14
Cc1c(N2CCc3ccccc3C2)c(N)cc2c(=O)c(C(=O)O)cn(C3CC3)c12	inactive: -0.0347	inactive: -0.649	inactive: -0.456
Cc1ccnc(NS(=O)(=O)c2ccc(N)cc2)n1	inactive: -0.757	inactive: 0.582	inactive: -1.17
O=C(O)c1ccccc1C1c2ccc(O)cc2Oc2cc(O)ccc21 [Fluorescin]	inactive: -1.31	inactive: -0.891	inactive: -1.12
COc1ccc(-c2c(Cl)ncn2-c2ccc(S(N)(=O)=O)cc2)cc1F [Cimicoxib]	inactive: 1.31	inactive: -0.658	inactive: 0.859
[O]=[Mg] [Magnesium oxide]	inactive: -0.683	inactive: -0.285	inactive: 0.777
CC(=O)[C@]1(N)Cc2c(O)c3c(c(O)c2[C@@H](O[C@H]2C[C@H](O)[C@H](O)CO2)C1)C(=O)c1ccccc1C3=O [Amrubicin]	inactive: 0.0322	inactive: 0.149	active: 11.7
NC(=O)c1cnc2[nH]ccc2c1N[C@H]1[C@@H]2CC3C[C@H]1C[C@@](O)(C3)C2 [peficitinib]	inactive: 0.999	active: 14.5	inactive: 4.9
CCN(CC)CCOC(=O)C(c1ccccc1)c1ccccc1	inactive: -0.535	inactive: 0.76	inactive: -0.704
O=C(O)Cc1csc(-c2ccc(Cl)cc2)n1	inactive: -0.723	inactive: -1.3	inactive: -0.0199

Compound	TEAD-luciferase reporter activity (compound concentration: 200 nM)	TEAD-luciferase reporter activity (compound concentration: 2 uM)	TEAD-luciferase reporter activity (compound concentration: 10 uM)
CC(=O)NN1CC(C)(C)C(=O)c2ccc(S(=O)(=O)C(F)(F)F)cc21	inactive: 2.23	inactive: -1.32	inactive: -1.58
CC/C=C\C/C=C\C/C=C\C/C=C\C/C=C\C/C=C\CCC(=O)OCCCNC(=O)[C@H](O)C(C)(C)CO	inactive: -1.54	inactive: 1.05	inactive: 0.312
Cn1nc(O[C@@H]2c3cc(S(=O)(=O)c4cccc(O)c4)ccc3OC(C)(C)[C@@]2(C)O)ccc1=O	inactive: -0.443	inactive: -0.0567	inactive: -1.71
CNC(=S)C1(c2cccc(C)n2)CCCS1 (stereo not given)	inactive: -0.898	inactive: -0.516	inactive: 0.417
N=C(N)c1ccc(N2CCN(C3CCN(CC(=O)O)CC3)CC2)cc1	inactive: -0.894	inactive: -0.274	inactive: -0.857
CCOC(=O)CC1(c2ccc(OCc3cccc(-c4ccc(OCC5CCS(=O)(=O)CC5)cc4Cl)c3)cc2)COC1	inactive: -0.863	inactive: -0.783	inactive: -1.01
O=C(OCCN1CCN(c2cccc(C(F)(F)F)c2)CC1)c1ccccc1Nc1ccnc2cc(C(F)(F)F)ccc12 [antrafenine]	inactive: 0.12	inactive: -0.525	inactive: -1.75
CN/C(=C/[N+](=O)[O-])NCCSCc1ccc(CN(C)C)o1 [ranitidine bismuth citrate]	inactive: -0.293	inactive: -1.5	inactive: 2.23
COc1ccnc(CS(=O)c2nc3cc(-n4cccc4)ccc3[nH]2)c1C (stereo not given) [ilaprazole]	inactive: -0.395	inactive: -0.717	inactive: 0.465
C1C[S][Bi-]2([S]1)[S]CC[S]2 [Bismuth ethanedithiol]	inactive: 0.0392	inactive: 2.31	inactive: 1.33
CN1C/C=C/CCOc2cccc(c2)-c2ccnc(n2)Nc2cccc(c2)C1	inactive: -1.07	inactive: -3.74	inactive: -2
Cc1cccc(N(C)C(=S)Oc2ccc3c(c2)C2CCC3C2)c1 (stereo not given) [tolciclate]	inactive: -1.5	inactive: 1.73	inactive: -0.904
O=C(NOCCO)c1cc(CN2OCCCC2=O)c(F)c(F)c1Nc1ccc(I)cc1F	inactive: 0.122	inactive: 2.4	inactive: -0.533
CN(C)C(=O)c1c[nH]c2cccnc12	active: 8.64		inactive: -3.03
CC(C)OCCN(C(=O)CCl)c1ccc(C(=O)N2CCN(CCc3ccc(Cl)cc3)CC2)cc1	inactive: -1.12	inactive: -1.36	inactive: 0.773
CCCCC(CC)CN1CN(CC(CC)CCCC)CC(C)(N)C1 (stereo not given)	inactive: 0.039	inactive: -0.68	inactive: 0.245
CC(=O)N1CCN(NC(=O)c2ccc(F)cc2)CC1	inactive: -0.817	inactive: -0.49	inactive: -0.45
O=C(NC(Cc1c[nH]c2ccccc12)C(=O)O)c1ccc(Cl)cc1 (stereo not given) [benzotript]	inactive: -1.86	inactive: -1.12	inactive: -1.27
CC(C)[C@H](NC(=O)c1ccc2ccccc2n1)C(=O)N[C@@H](Cc1ccccc1)[C@H](O)CN1CC[C@@H](OCc2ccncc2)C[C@H]1C(=O)NC(C)(C)C	inactive: -0.526	inactive: 0.0697	inactive: -0.443
CCCCCCCCCCCCCCN(C(=O)CCCCCCCCCCC)[C@@H]1O[C@H](CO)[C@@H](O)[C@H](O)[C@H]1NC(=O)CN	inactive: -1.41	inactive: -2.17	inactive: -0.413
OB(O)O	inactive: -1.26	inactive: 1.23	inactive: 0.493
CCCc1c(O)ccc2c(=O)cc(C(=O)O)oc12	inactive: -2.38	inactive: 0.22	inactive: -0.452
O=C1CC2(CCCC2)CC(=O)N1CCCCN1CCN(c2nsc3ccccc23)CC1 [Tiospirone hydrochloride]	inactive: -0.0973	inactive: 0.388	inactive: 0.442
CC(O)CC(=O)[O-] (stereo not drawn) [beta-Hydroxybutyrate]	inactive: -0.512	inactive: -1.97	inactive: 0.141
CN1C(=O)OC(C)(C)C1=O [Trimethadione]	inactive: -1.8	inactive: -0.246	inactive: -1.32
Cc1cn([C@H]2C[C@H](O)[C@]3(CO)C[C@H]23)c(=O)[nH]c1=O [North-methanocarbathymidine]	inactive: -1.07	inactive: -0.594	inactive: 1.45
C=C1/C(=C\C=C2/CCC[C@]3(C)[C@@H]([C@H](C)CCCC(C)(C)O)CC[C@@H]23)C[C@@H](O)[C@@H](OCCCO)[C@@H]1O [Edirol]	inactive: 0.487	inactive: 0.805	inactive: 0.0903

Looked up by structure from the entries so far, 4 records:
Compound	TEAD-luciferase reporter activity (compound concentration: 200 nM)	TEAD-luciferase reporter activity (compound concentration: 2 uM)	TEAD-luciferase reporter activity (compound concentration: 10 uM)
CN/C(=C/[N+](=O)[O-])NCCSCc1ccc(CN(C)C)o1 [ranitidine bismuth citrate]	inactive: -0.293	inactive: -1.5	inactive: 2.23
O=C(O)c1ccccc1C1c2ccc(O)cc2Oc2cc(O)ccc21 [Fluorescin]	inactive: -1.31	inactive: -0.891	inactive: -1.12
COc1cccc(C(=O)OC2CCN(C)CC2)c1	inactive: -0.725	inactive: 0.465	inactive: 2.24
FC(F)C(F)(F)CBr	inactive: 0.603	inactive: 1.67	inactive: -0.752
